Each structure is given as a SMILES string. The list shows a part of the results. These are further read-outs of the screen, such as a control signal, another cell line or another target. No call is given for them. Compounds called inactive in the main read-out are mostly missing here. The note in brackets gives the kind of curve behind each potency; many fits are weak.

This assay can be described thus: qHTS Assay to Find Inhibitors of Chronic Active B-Cell Receptor Signaling. Particulars: ABC-DLBCL IkBa-CBG/CBR reporter, luminescence ratio (green luciferase fused to IkBa over red control in TMD8 lymphoma cells), 4 h. The method, boiled down: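 Compounds up to 46 uM were incubated four hours with TMD8 cells whose green CBG68 luciferase is fused to IkappaBalpha; red CBR luminescence normalised the signal, and concentration-effect curves were fitted to fusion, red and ratio data.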
In general terms: In qHTS, concentration-response curves come from the screen itself.

[1] abbreviates: measured here: CBR red luminescence, cell number.
The mark [2] stands for this setting: measured here: IkBa-CBG green luminescence.

For `Cc1ccc(NNC(=S)Nc2ccc(C(C)C)cc2)c(C)c1`, under setting [1], the AC50 (usually the midpoint of the concentration-response curve, whichever way the signal moves) is 0.366 µM [falling, full curve].

As to `O=C(Nc1ccc(Cl)cc1)N(C1=NCCC1)c1ccc(OC(F)F)cc1`, the AC50 under setting [1] is 0.794 µM [rising, full curve, poor fit].

As to `Cc1cccc(C(=O)Nc2ccc(N3CCN(c4ccc(C(F)(F)F)cn4)CC3)nc2)c1`, the AC50 under setting [1] is 31.6 µM [falling, single point].

Consider `CCCc1nc2oc3ccccc3c(=O)c2c(=O)n1-c1ccc(C)cc1`, for which the AC50 under setting [1] was 1.78 µM [falling, full curve].

`COc1ccc(NC(=O)c2cc(SC)ccc2Cl)cc1`: under setting [1], the AC50 is 25.9 µM [falling, single point].

For the compound `COC(=O)c1sccc1NC(=O)Nc1ccc(OC)cc1`, under setting [1], the half-maximal activity concentration (AC50) is 2.82 µM [falling, full curve].

For `C=CCNC(=S)NNc1nc2c(c(=O)[nH]1)C1(CCCCC1)Cc1ccccc1-2`, the concentration at half-maximal activity (AC50) under setting [1] was 23.1 µM [falling, single point].

For `COc1ccc(CNCC(O)(c2ccccc2)c2ccc(Cl)cc2)cc1` (configuration not stated), the AC50 under setting [1] was 25.9 µM [falling, single point].

For `CCC(=O)NCCCNc1nc2c(C)cccc2cc1C#N`, the AC50 under setting [1] was 15.8 µM [falling, partial curve, poor fit].

As to `Cc1cccc(C)c1OCc1cc(C(=O)N2CCN(Cc3nccn3C)CC2)no1`, the AC50 under setting [1] was 0.0891 µM [rising, full curve, poor fit].

As to `COc1cc(CN2CCNC(=O)C2CC(=O)NCCc2ncccc2C)cc(OC)c1` (configuration not stated), the AC50 under setting [1] was 3.16 µM [rising, single point].

On to `O=C(CSc1nc2ccccc2o1)Nc1nccs1`, for which the AC50 under setting [1] was 12.6 µM [falling, single point].

`CCOC(=O)c1ccccc1N/C=C/C(=O)c1cccs1`: the AC50 under setting [1] is 16.4 µM [falling, single point].

Turning to `Cc1ccc(NC(=O)CSc2nc3ccccc3c3nc(CCn4c(C)nc5ccccc54)nn23)cc1F`, the AC50 under setting [1] was 15.8 µM [falling, single point].

For `O=C(Nc1ccc2c(c1)OCO2)Nc1ccc(Cl)cc1Cl`, the AC50 under setting [1] is 6.51 µM [rising, single point].

With `COc1cc2c(cc1OC)C(c1ccccc1)N(C(=O)CCl)CC2` (configuration not stated), the AC50 under setting [1] is 3.16 µM [falling, full curve, poor fit].

Turning to `C=CCn1c(Cc2cccs2)nnc1SCC(=O)c1ccc2ccccc2c1`, the AC50 under setting [1] was 7.31 µM [rising, partial curve, poor fit].

In the case of `COc1ccc(CN2CCC(Oc3ccc(C(=O)NCc4ccccn4)cc3)CC2)c(F)c1`, the AC50 under setting [1] is 4.47 µM [rising, partial curve, poor fit].

As to `O=C(CSc1ccccc1)NCc1ccco1`, the AC50 under setting [1] is 18.4 µM [rising, partial curve, poor fit].

`Cc1ccc(C#CC[N+]2(CC#Cc3ccc(C)cc3)CCCCC2)cc1`: the AC50 under setting [1] was 23.1 µM [falling, single point].

As for `COCCNC(=O)/C(C#N)=C/c1ccc(OCc2ccc(F)cc2)cc1`, under setting [1], the AC50 is 1.12 µM [falling, full curve, poor fit].

Turning to `O=C(O)c1ccc2[nH]c3c(c2c1)CSCC3`, the AC50 under setting [1] was 16.4 µM [falling, partial curve, poor fit].

On to `CCCc1nnc(NC(=O)c2nc(S(=O)(=O)Cc3ccc(C)cc3)ncc2Cl)s1`, for which the AC50 under setting [1] was 14.1 µM [falling, single point].

As for `Cc1ccccc1CN1CCN(C2CCC2)CC1CCO` (configuration not stated), the AC50 under setting [1] was 3.16 µM [rising, single point].

Regarding `Cc1ccc2c(C(=O)CN3CCC(C(N)=O)CC3)c(C)[nH]c2c1`, the AC50 under setting [1] was 11.2 µM [rising, partial curve, poor fit].

For `COc1cccc(-c2sc3ccc(OC)cc3c2-c2cc(F)cc(OC)c2)c1`, the AC50 under setting [1] was 16.4 µM [rising, partial curve, poor fit].

Consider `O=c1c2c3c(sc2nc2n1CCC2)CCCC3`, for which, under setting [1], the AC50 is 0.398 µM [rising, partial curve, poor fit].

Regarding `CCN(CC)CCCCN1c2ccccc2Sc2ccccc21`, the AC50 under setting [1] was 35.5 µM [falling, single point].

With `Cc1cc(C)c2c(=O)n(CC(=O)NC3CCCC3)sc2n1`, the half-maximal activity concentration (AC50) under setting [1] is 3.16 µM [falling, partial curve, poor fit].

For the compound `COc1ccc(NC(=O)C(C/C=C(/C)Cl)C(C)=O)cc1` (configuration not stated), under setting [1], the half-maximal activity concentration (AC50) is 6.51 µM [falling, single point].

In the case of `Nc1nc(N)c2c(ccc3nccc32)[nH]1`, the AC50 is 7.08 µM [rising, partial curve, poor fit] under setting [1] and 11.2 µM [falling, partial curve, poor fit] under setting [2].

In the case of `CN(C)CCCN(C(=O)c1ccc(S(=O)(=O)N2CCCCC2)cc1)c1nc2cc3c(cc2s1)OCO3`, under setting [1], the AC50 was 35.5 µM [falling, single point].

For the compound `O=C(Nc1ccc(F)c(F)c1)C1CCCN(S(=O)(=O)c2cccc3nonc23)C1` (configuration not stated), the AC50 under setting [1] is 35.5 µM [rising, partial curve, poor fit].

For `CCOC(=O)c1cccc(-c2c(-c3ccccc3)ncc3cc(OC)c(OC)cc23)c1`, under setting [1], the AC50 is 18.4 µM [falling, partial curve].

Regarding `Cc1ccnc(SCC(=O)Nc2c(C)n(C)n(-c3ccccc3)c2=O)n1`, the AC50 under setting [1] is 0.259 µM [falling, full curve, poor fit].

As for `CCN1C/C(=C/c2ccc(N3CCOCC3)cc2)C(=O)/C(=C/c2ccc(N3CCOCC3)cc2)C1`, the AC50 under setting [1] was 1.46 µM [falling, partial curve, poor fit] and the AC50 under setting [2] was 29.1 µM [falling, single point].

Consider `O=C(O)c1[nH]c2ccc(Cl)cc2c1CCN1C(=O)c2ccccc2C1=O`, for which the AC50 under setting [1] was 35.5 µM [rising, single point].

With `CCCC(=O)Nc1nc2c(OC)ccc(OC)c2s1`, the AC50 under setting [1] is 6.51 µM [falling, partial curve, poor fit].

`O=C(CSc1nnc(NC(=O)c2c(F)cccc2F)s1)Nc1ccc(F)cc1`: under setting [1], the AC50 is 0.794 µM [rising, full curve, poor fit].

Consider `COC(=O)c1ccccc1NC(=O)c1ccc(-c2cccc(Cl)c2)o1`, for which the AC50 under setting [1] was 0.082 µM [falling, full curve].

On to `C=CCNC(=O)CSc1nnc(-c2ccc(S(=O)(=O)N3CCCC3)cc2)n1C`, for which the AC50 under setting [1] is 15.8 µM [rising, partial curve, poor fit].

Turning to `CCn1c(SCc2nc3ccccc3c(=O)[nH]2)nnc1C(C)NC(=O)c1ccccc1` (configuration not stated), under setting [1], the AC50 was 17.8 µM [falling, single point].

In the case of `CCOC(=O)c1c(NC(=O)CNC2CCCCC2)sc(C)c1C`, under setting [1], the AC50 is 22.4 µM [falling, single point].

Regarding `C#CCNC(=O)C1=C[C@H](c2ccc(C(F)(F)F)cc2)C[C@H](OCc2ccc(CO)cc2)O1`, under setting [1], the half-maximal activity concentration (AC50) is 2.82 µM [rising, partial curve, poor fit].

On to `C/C(=N/NC(=O)c1ccncc1)c1c[nH]c2ccccc12`, for which, under setting [1], the AC50 is 35.5 µM [falling, single point].

Regarding `N#Cc1c(N)nc2c3c(sc(=N)c2c1N)NC(=O)CC3c1ccccc1` (configuration not stated), the AC50 is 25.9 µM [rising, single point] under setting [1] and 29.1 µM [falling, single point] under setting [2].

For `Clc1ccc(C2CSc3c4ncnc-4ncn32)cc1` (configuration not stated), under setting [1], the AC50 was 5.62 µM [rising, full curve, poor fit].

For `CC1=CC(C)(C)n2c(O)c(N=N)c3cc(C)cc1c32`, the AC50 under setting [2] is 3.66 µM [falling, partial curve, poor fit].

As to `COc1cccc(-c2nn(C)c3sc(C(=O)NCc4ccc5c(c4)OCO5)cc23)c1`, the AC50 under setting [1] was 15.8 µM [falling, single point].

On to `O=C(c1cc(COc2cccc(C(F)(F)F)c2)on1)N1CCC(c2ccncc2)CC1`, for which the AC50 under setting [1] was 14.1 µM [falling, single point].

Turning to `CCCC(=O)c1c(C)c2ccccc2n1C`, the AC50 under setting [1] was 3.55 µM [rising, partial curve, poor fit].

On to `Cc1cc2nc3ccc(=[N+](C)C)cc-3sc2cc1N`, for which the AC50 under setting [1] was 35.5 µM [falling, single point].

Regarding `Cc1cccc(CC2CC(=O)N(c3ccccc3)C2=O)c1` (configuration not stated), under setting [1], the AC50 was 10.3 µM [rising, partial curve, poor fit].

For the compound `COc1ccccc1-[n+]1c(C)cc(/C=C2\Sc3ccccc3N2C)cc1C`, the AC50 under setting [1] is 8.91 µM [falling, partial curve, poor fit].

Take `O=C(NC(O)C(=O)c1ccccc1)c1cccs1` (configuration not stated): under setting [1], the AC50 is 14.6 µM [falling, partial curve, poor fit].

For `CCc1ccccc1NC(=O)c1cc(S(=O)(=O)NCCc2ccc(OC)c(OC)c2)ccc1F`, the AC50 under setting [1] was 0.562 µM [rising, full curve, poor fit].

On to `O=C1CN(C(=O)c2c(F)cccc2F)C(c2ccc(F)cc2)c2cc(Br)ccc2N1` (configuration not stated), for which the AC50 under setting [1] was 25.1 µM [falling, single point].

In the case of `COC(=O)c1cccc(NC(=O)Cc2coc3cc(OC)ccc23)c1`, the AC50 under setting [1] is 8.2 µM [falling, partial curve, poor fit].

On to `O=C(CCCCCn1c(SCC(=O)c2ccccc2)nc2ccccc2c1=O)NCc1ccco1`, for which the concentration at half-maximal activity (AC50) under setting [1] is 25.1 µM [rising, partial curve, poor fit].

For `Cc1nnc(NC(=O)c2nc(S(=O)(=O)Cc3ccccc3)ncc2Cl)s1`, the AC50 under setting [1] is 15.8 µM [falling, partial curve].

With `Cc1nc(Nc2ccccc2)sc1C(=O)c1ccccc1`, the AC50 under setting [1] is 14.1 µM [falling, partial curve, poor fit].

As to `Cc1ccc(OCC(=O)Nc2ccc3c(c2)nc(CCN2CCOCC2)n3C)cc1`, the AC50 under setting [1] is 5.62 µM [rising, single point].

With `COc1ccc(C(=O)NCC(c2ccco2)N2CCc3ccccc32)cc1` (configuration not stated), the AC50 reads like this: under setting [1], 29.1 µM [rising, single point]; under setting [2], 18.4 µM [falling, single point].

The record behind these values is PubChem BioAssay AID493014 (National Center for Advancing Translational Sciences (NCATS), 2011).
